This passage reports binding results from PMC8379249.

Chains of the proteins cited; added tags and fusions are not shown.
UniProt P06211: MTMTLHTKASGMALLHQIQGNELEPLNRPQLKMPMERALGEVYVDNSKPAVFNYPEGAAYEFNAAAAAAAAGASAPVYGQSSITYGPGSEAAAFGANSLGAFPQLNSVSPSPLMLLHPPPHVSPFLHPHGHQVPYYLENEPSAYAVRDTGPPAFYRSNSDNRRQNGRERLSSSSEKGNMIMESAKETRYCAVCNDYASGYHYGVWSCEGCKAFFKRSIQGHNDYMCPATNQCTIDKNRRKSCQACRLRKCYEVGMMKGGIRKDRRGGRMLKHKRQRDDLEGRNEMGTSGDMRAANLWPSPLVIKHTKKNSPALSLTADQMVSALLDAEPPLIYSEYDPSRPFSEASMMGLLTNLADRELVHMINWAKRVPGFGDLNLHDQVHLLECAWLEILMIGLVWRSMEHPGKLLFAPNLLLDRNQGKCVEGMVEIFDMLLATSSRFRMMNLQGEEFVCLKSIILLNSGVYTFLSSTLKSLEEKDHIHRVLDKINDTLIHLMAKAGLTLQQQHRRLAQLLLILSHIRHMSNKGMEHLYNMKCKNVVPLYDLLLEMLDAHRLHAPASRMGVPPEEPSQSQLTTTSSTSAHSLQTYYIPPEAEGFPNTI

Results are given in words; binding and its absence hold for the method and conditions named. In cells and extracts the contact can be indirect. Some entries that bind do so weakly or less than the wild type.

This assay addresses T1, Retinoid X receptor α (RXRα), endogenous in rat primary chondrocytes (rat (endogenous in primary chondrocytes)) (UniProt Q05343).
T1 sequence: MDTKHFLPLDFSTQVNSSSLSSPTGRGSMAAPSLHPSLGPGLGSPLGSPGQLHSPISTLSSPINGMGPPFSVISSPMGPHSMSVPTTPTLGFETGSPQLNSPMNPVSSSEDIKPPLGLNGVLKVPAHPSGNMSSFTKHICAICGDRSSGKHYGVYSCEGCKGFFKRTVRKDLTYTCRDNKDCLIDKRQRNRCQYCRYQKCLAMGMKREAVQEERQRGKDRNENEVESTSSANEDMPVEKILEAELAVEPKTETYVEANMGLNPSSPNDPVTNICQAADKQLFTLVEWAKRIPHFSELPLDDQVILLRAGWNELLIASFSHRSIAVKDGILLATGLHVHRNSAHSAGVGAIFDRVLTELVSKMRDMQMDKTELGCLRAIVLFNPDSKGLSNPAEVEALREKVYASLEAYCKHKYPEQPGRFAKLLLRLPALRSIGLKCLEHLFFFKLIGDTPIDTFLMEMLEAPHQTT
As to the kind of experiment: co-IP; primarily cultured rat chondrocytes, endogenous proteins, treated with K-80003 (1 μM, 5 μM, 25 μM); co-IP using anti-RXRα or anti-ERα antibody.

Consider “Estrogen receptor α (ERα), endogenous in rat primary chondrocytes (from UniProt P06211 1-600)”, for which the binding entry is reported as “binds”.
